The text below walks through data of article PMC12304000.

Chains of the proteins cited; added tags and fusions are not shown. Residues count along the entry.
UniProt Q05397: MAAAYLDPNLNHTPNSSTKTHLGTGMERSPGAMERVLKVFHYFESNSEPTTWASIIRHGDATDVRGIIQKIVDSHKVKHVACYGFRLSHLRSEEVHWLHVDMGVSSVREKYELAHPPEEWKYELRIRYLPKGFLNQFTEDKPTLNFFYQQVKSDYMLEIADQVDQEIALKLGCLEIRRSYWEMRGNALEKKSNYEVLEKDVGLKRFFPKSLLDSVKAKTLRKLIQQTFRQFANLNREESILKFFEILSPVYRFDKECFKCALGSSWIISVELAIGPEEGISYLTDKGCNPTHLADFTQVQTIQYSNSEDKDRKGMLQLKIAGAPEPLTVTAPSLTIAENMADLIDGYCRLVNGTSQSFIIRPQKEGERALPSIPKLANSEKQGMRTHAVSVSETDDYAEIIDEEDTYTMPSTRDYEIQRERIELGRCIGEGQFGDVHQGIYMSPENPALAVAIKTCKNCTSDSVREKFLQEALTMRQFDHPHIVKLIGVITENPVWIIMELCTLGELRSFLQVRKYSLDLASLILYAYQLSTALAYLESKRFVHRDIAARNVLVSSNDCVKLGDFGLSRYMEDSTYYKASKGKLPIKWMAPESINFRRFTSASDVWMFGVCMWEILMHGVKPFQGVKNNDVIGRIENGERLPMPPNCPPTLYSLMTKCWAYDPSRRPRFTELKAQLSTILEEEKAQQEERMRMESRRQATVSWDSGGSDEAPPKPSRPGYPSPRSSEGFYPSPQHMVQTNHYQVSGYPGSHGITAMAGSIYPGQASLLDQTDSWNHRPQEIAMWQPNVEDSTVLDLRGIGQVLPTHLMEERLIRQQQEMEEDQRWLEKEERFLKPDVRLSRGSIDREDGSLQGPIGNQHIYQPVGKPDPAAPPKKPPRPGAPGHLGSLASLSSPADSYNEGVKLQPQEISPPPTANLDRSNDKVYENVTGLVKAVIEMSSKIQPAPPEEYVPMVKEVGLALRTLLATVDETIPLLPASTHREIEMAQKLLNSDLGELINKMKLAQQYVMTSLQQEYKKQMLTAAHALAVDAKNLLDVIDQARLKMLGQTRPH
UniProt P05412: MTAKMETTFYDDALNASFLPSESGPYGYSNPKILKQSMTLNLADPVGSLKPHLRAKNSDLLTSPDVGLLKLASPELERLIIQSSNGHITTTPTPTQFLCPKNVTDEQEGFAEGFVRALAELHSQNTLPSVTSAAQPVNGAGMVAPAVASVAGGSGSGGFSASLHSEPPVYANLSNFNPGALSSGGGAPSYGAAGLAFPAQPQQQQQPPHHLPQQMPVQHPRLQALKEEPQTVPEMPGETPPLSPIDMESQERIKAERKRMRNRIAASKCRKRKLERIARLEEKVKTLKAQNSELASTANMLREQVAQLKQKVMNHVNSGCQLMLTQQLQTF
UniProt Q9NZQ7, residues 19-290: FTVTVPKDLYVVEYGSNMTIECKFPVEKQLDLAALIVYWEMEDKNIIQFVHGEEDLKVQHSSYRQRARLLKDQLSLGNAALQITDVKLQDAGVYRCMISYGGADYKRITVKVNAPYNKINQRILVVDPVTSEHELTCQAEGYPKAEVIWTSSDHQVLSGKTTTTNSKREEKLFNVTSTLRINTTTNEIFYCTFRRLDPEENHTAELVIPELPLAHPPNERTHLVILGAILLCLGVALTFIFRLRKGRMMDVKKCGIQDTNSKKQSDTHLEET

No constants are given. Whether binding was seen depends on the method and setting. In cells and extracts the contact can be indirect. Some entries that bind do so weakly or less than the wild type.

This assay deals with FAK (human (endogenous in CAFs)) (UniProt Q05397). Kind of assay: co-IP; lysates of CAFs (CD248-overexpressing); commercial kit (Absin, #abs9649); primary antibody 1 h, then antibody-conjugated beads overnight at 4°C; anti-FAK antibody, rabbit IgG as control, 2 µg per mg of total protein; detection by blot.

For c-Jun (from UniProt P05412 1-331), the binding result is recorded as “binds”.
Turning to “PD-L1 (from UniProt Q9NZQ7 19-290) (ligand)”, the binding entry is on record as “binds”.
